Earlier results as cited in patent publication US8920846B2, “Microcapsule and production method thereof” (Sumitomo Chemical Company, Limited, priority 2009, dated 2014).
Some entries share one result that the patent states for a list of compounds. At least one compound was matched to its structure with a doubt left.

Settings: at 20° C.

Compound | water solubility
CN/C(=N\[N+](=O)[O-])NCc1cnc(Cl)s1 [clothianidin] | more than 100 ppm
C#CCN1C(=O)COc2cc(F)c(N3C(=O)C4=C(CCCC4)C3=O)cc21 [flumioxazin] | less than 30 ppm
Cc1nn(C)c(Cl)c1C(=O)Nc1cccc2c1C(C)OC2(C)C (stereo not drawn) [furametpyr] | more than 100 ppm
